{"source": "PubChem BioAssay AID504791, Drosophila RNAi Screening Center – 2011", "aim": "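Factors in Argonaute-based small RNA production and activity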 (primary screen)", "cell system": "Drosophila S2-derived reporter cells", "reagents": "long dsRNA against Drosophila genes, about 150-250 ng dsRNA per well (siRNA assay); about 80-120 ng (miRNA assay)", "timing": "about 5 days (siRNA assay); about 4 days (miRNA assay)", "treatment": "copper sulfate induction of reporters: 25 µM (siRNA assay); 200 mM stated (miRNA assay), 1-2 days before reading", "read-out": "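Dual luciferase assay: Renilla to firefly signal ratio in each well, scaled to the mean ratio of its plate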", "units": "stable assay Renilla, run 1 in luminescence; stable assay firefly, run 1 in luminescence", "call rule": "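a well was a first-pass pick when its plate-scaled ratio rose above 1.5 (siRNA assay) or 1.6 (miRNA assay), or dropped below 0.6; a gene counted only if two separate dsRNAs agreed on retest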", "note": "The screen tested about 23,000 reagents; this is an unselected part of those with a known target gene and a result. Over the whole deposit, 199 (0.86%) got an active call. 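Plate-scaled ratios behind the calls are not deposited; printed light signals are raw; many rows marked increased or decreased are still called inactive.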 A number with no mark means an inactive call. Reagents against one gene are numbered here. Names joined by + are all predicted targets of the reagent. The record does not give: the direction of the score."}
{"target": "CG31099", "dsRNA no.": 1, "stable assay Renilla, run 1": 6826, "stable assay firefly, run 1": 3.76e5}
{"target": "CG5823", "dsRNA no.": 1, "stable assay Renilla, run 1": 7291, "stable assay firefly, run 1": 3.07e5}
{"target": "cv", "dsRNA no.": 1, "stable assay Renilla, run 1": 4454, "stable assay firefly, run 1": 2.99e5}
{"target": "CG45002", "dsRNA no.": 1, "stable assay Renilla, run 1": 3671, "stable assay firefly, run 1": 2.94e5}
{"target": "CG15760", "dsRNA no.": 1, "stable assay Renilla, run 1": 5167, "stable assay firefly, run 1": 5.31e5}
{"target": "Fbp2", "dsRNA no.": 1, "stable assay Renilla, run 1": 8644, "stable assay firefly, run 1": 6.59e5}
{"target": "CG13671", "dsRNA no.": 1, "stable assay Renilla, run 1": 7600, "stable assay firefly, run 1": 5.76e5}
{"target": "eIF3g2", "dsRNA no.": 1, "stable assay Renilla, run 1": 6316, "stable assay firefly, run 1": 2.83e5}
{"target": "rpr", "dsRNA no.": 1, "miRNA reporter change": "reporter ratio raised past the hit cutoff", "stable assay Renilla, run 1": 7574, "stable assay firefly, run 1": 4.01e5}
{"target": "ctp", "dsRNA no.": 1, "stable assay Renilla, run 1": 6758, "stable assay firefly, run 1": 5.55e5}
{"target": "Yp3", "dsRNA no.": 1, "stable assay Renilla, run 1": 6258, "stable assay firefly, run 1": 6.75e5}
{"target": "Ugt303B2", "dsRNA no.": 1, "stable assay Renilla, run 1": 7590, "stable assay firefly, run 1": 3.28e5}
{"target": "Ugt303B2", "dsRNA no.": 2, "stable assay Renilla, run 1": 5575, "stable assay firefly, run 1": 5.82e5}
{"target": "CG6425", "dsRNA no.": 1, "stable assay Renilla, run 1": 8275, "stable assay firefly, run 1": 4.87e5}
{"target": "CR32745", "dsRNA no.": 1, "stable assay Renilla, run 1": 6331, "stable assay firefly, run 1": 4.93e5}
{"target": "l(3)73Ah", "dsRNA no.": 1, "stable assay Renilla, run 1": 9071, "stable assay firefly, run 1": 3.62e5}
{"target": "CG2147", "dsRNA no.": 1, "stable assay Renilla, run 1": 7894, "stable assay firefly, run 1": 5.70e5}
{"target": "CG42580", "dsRNA no.": 1, "stable assay Renilla, run 1": 4239, "stable assay firefly, run 1": 3.35e5}
{"target": "atilla", "dsRNA no.": 1, "stable assay Renilla, run 1": 7351, "stable assay firefly, run 1": 4.87e5}
{"target": "RunxB", "dsRNA no.": 1, "stable assay Renilla, run 1": 3772, "stable assay firefly, run 1": 3.44e5}
{"target": "RunxB", "dsRNA no.": 2, "stable assay Renilla, run 1": 6474, "stable assay firefly, run 1": 4.28e5}
{"target": "RunxB", "dsRNA no.": 3, "miRNA reporter change": "reporter ratio raised past the hit cutoff", "stable assay Renilla, run 1": 5084, "stable assay firefly, run 1": 2.86e5}
{"target": "RunxB", "dsRNA no.": 4, "stable assay Renilla, run 1": 4876, "stable assay firefly, run 1": 3.20e5}
{"target": "Obp50b + Obp50c", "dsRNA no.": 1, "stable assay Renilla, run 1": 9302, "stable assay firefly, run 1": 5.65e5}
{"target": "CG11110", "dsRNA no.": 1, "stable assay Renilla, run 1": 6427, "stable assay firefly, run 1": 5.38e5}
{"target": "asRNA:CR42547 + CG15674", "dsRNA no.": 1, "stable assay Renilla, run 1": 6839, "stable assay firefly, run 1": 3.72e5}
{"target": "Chsy", "dsRNA no.": 1, "stable assay Renilla, run 1": 5891, "stable assay firefly, run 1": 4.41e5}
{"target": "Chsy", "dsRNA no.": 2, "stable assay Renilla, run 1": 4199, "stable assay firefly, run 1": 3.53e5}

Part of the list above, reformatted:
target	dsRNA no.	miRNA reporter change	stable assay Renilla, run 1	stable assay firefly, run 1
l(3)73Ah	1		9071	3.62e5
CG2147	1		7894	5.70e5
CG42580	1		4239	3.35e5
atilla	1		7351	4.87e5
